According to PubChem BioAssay AID2685 (National Center for Advancing Translational Sciences (NCATS), 2010):
The list shows a part of the results. Shown are side measurements of this screen, not its main read-out; they come without a call. Compounds called inactive in the main read-out are mostly missing here. The note in brackets gives the kind of curve behind each potency; many fits are weak.

Test: qHTS Assay for Lipid Storage Modulators in Drosophila S3 Cells;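 on cell number change: cells counted by Cell Tracker Red CMTPX staining in the red channel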
Conditions: BODIPY lipid droplet fluorescence, 18-24 h; for cell number change: measured here: cell count max response, cells fed with added oleic acid
How it was run: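 Drosophila S3 cells got compounds at several concentrations plus oleic acid (400 uM solution). Laser-scanning cytometry with 488 nm excitation read lipid droplets at 500-530 nm and cells at 575-640 nm. Percent activity was relative to 20 uM Triacsin C.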

[1] = measured here: lipid fluorescence (Fed channel) AC50, cells fed with added oleic acid
[2] = measured here: cell number channel AC50, cells fed with added oleic acid

Row | SMILES | cell number change [%] | AC50 [1] | AC50 [2]
1 | O=[N+]([O-])c1ccc(Nc2ccc(Cl)cc2)nc1 | 17.2 | 0.00461 µM [rising, full curve, poor fit] | –
2 | O=C1NC(=S)/C(=C\c2ccc(-c3ccccc3Cl)o2)S1 | -33.3 | – | 0.00461 µM [falling, full curve, poor fit]
3 | CCn1c(=O)c(C(=O)Nc2ccccc2)c(O)c2ccccc21 | 5.89 | 7.31 µM [rising, partial curve, poor fit] | –
4 | CC(C)c1cccc(C(C)C)c1NC(=O)COC(=O)c1ccc2c(c1)S(=O)(=O)c1ccccc1C2=O | 7.72 | – | 2.06 µM [falling, partial curve]
5 | NC(=O)NCCc1ccccc1 | 15.3 | 6.51 µM [falling, single point] | –
6 | CC(NC(=O)CN(c1ccc(F)cc1)S(C)(=O)=O)c1ccccc1 (centres undefined) | – | 10.3 µM [falling, partial curve] | –
7 | CCOC(=O)C(CCCOc1ccc(C(C)CC)cc1)C(=O)OCC (centres undefined) | 3.37 | 0.116 µM [falling, full curve, poor fit] | –
8 | COc1cc(OC)cc(C(=O)O/N=C(\N)c2ccccn2)c1 | 10.7 | 16.4 µM [rising, single point] | –
9 | CCC(=O)N1c2ccc(S(=O)(=O)N3CCN(C)CC3)cc2CC1C (centres undefined) | 25.2 | 29.1 µM [falling, single point] | –
10 | COc1cccc(C(=O)N2CCN(C(=O)Cc3ccccc3)CC2)c1 | -1.43 | 3.26 µM [falling, single point] | –
11 | CC(C)(C)n1nnnc1C(c1cccs1)N(Cc1cccnc1)Cc1ccco1 (centres undefined) | – | 6.51 µM [rising, partial curve] | –
12 | CCN(CC(=O)Nc1ccc(OC)cc1)C(=O)Cc1ccc(OC)c(S(=O)(=O)N2CCOCC2)c1 | 3.97 | 2.06 µM [rising, partial curve] | –
13 | CSc1ccccc1NC(=O)CSc1n[nH]c(C)c1[N+](=O)[O-] | -14.8 | 2.91 µM [falling, single point] | –
14 | Cc1ccc(-c2csc(N3CCN(c4cc5c(cc4Cl)nc(C)n5CCN4CCCCC4)CC3)n2)cc1 | 16.2 | 0.731 µM [falling, full curve, poor fit] | –
15 | CC(C)CC(c1nnnn1CC1CCCO1)N1CCN(C2CCCC2)CC1 (centres undefined) | -0.0718 | 6.51 µM [falling, single point] | –
16 | CCN(CC)S(=O)(=O)c1ccc(N2CCN(S(=O)(=O)c3ccc4c(c3)OCCO4)CC2)nc1 | – | – | 4.61 µM [rising, partial curve, poor fit]
17 | CCc1cccc(CC)c1NC(=O)NC1CCCCC1 | 2.25 | – | –
18 | C[C@@H]1CN(C(=O)c2nc3ccc(Cl)cn3c2CN2CCc3sccc3C2)C[C@H](C)O1 | -12.2 | 3.66 µM [falling, single point] | –
19 | CC[C@@H]1Cc2cc(O)ccc2C2=C1c1ccc(O)cc1C[C@H]2CC | -43.8 | 29.1 µM [falling, single point] | 20.6 µM [falling, single point]
20 | COc1ccc(NS(=O)(=O)c2cccc(C(=O)N/N=C/c3ccccn3)c2)cc1 | – | 0.13 µM [rising, partial curve, poor fit] | 0.116 µM [rising, full curve]
21 | Cc1ccc(C(=O)C2COC(=O)C2)cc1 (centres undefined) | 0.671 | 0.116 µM [rising, full curve, poor fit] | –

Structures above that contain a thiophene ring, fused or not (two):
Row | SMILES | cell number change [%] | AC50 [1] | AC50 [2]
11 | CC(C)(C)n1nnnc1C(c1cccs1)N(Cc1cccnc1)Cc1ccco1 (centres undefined) | – | 6.51 µM [rising, partial curve] | –
18 | C[C@@H]1CN(C(=O)c2nc3ccc(Cl)cn3c2CN2CCc3sccc3C2)C[C@H](C)O1 | -12.2 | 3.66 µM [falling, single point] | –

(next part)

Row | SMILES | cell number change [%] | AC50 [1] | AC50 [2]
22 | COc1ccc(S(=O)(=O)Nc2cccnc2)cc1OC | 24 | 6.51 µM [rising, single point] | –
23 | CC(Oc1cccc(Cl)c1)C(=O)N1CCCN(C)CC1 (centres undefined) | -4.18 | 29.1 µM [falling, single point] | –
24 | Cc1ccccc1-c1ccc(=O)n(CC(=O)Nc2ccc(C(=O)N3CCCC3)cc2)n1 | -18.5 | – | –
25 | Clc1ccc(Nc2ccc(Cl)nn2)cc1 | -0.335 | 0.058 µM [falling, full curve, poor fit] | –
26 | Cc1cccc(N(C(=O)c2snc(C(N)=O)c2N)C(C(=O)NCC2CCCO2)c2c[nH]c3ccccc23)c1 (centres undefined) | 10.3 | 0.116 µM [rising, single point] | –
27 | Cc1ccccc1CN1CCN(CC(=O)NCc2ccccc2)CC1 | 7.69 | – | –
28 | O=C1CN(C(=O)CSc2nnc(-c3ccccc3)n2Cc2ccc3c(c2)OCO3)c2ccccc2N1 | -70.8 | 29.1 µM [falling, partial curve] | 23.1 µM [falling, single point]
29 | O=C(C[n+]1cc(Br)cc2ccccc21)c1ccc(Cl)cc1 | – | 29.1 µM [rising, single point] | –
30 | Cc1ccc(OCCSc2ncnc3nc[nH]c23)cc1 | -16.9 | – | –
31 | Cc1nc2ccccc2c(=O)n1/N=C/c1ccccc1OC(F)F | 1.65 | 0.116 µM [rising, full curve, poor fit] | –
32 | Cc1nnc(SCC(=O)NCC(=O)Nc2ccc(F)c(F)c2F)n1Cc1ccccc1 | -10.1 | 16.4 µM [falling, partial curve] | –
33 | Cc1sc(NC(=O)C2CCCCC2C(=O)O)c(C(N)=O)c1C (centres undefined) | -19.6 | 2.91 µM [falling, full curve] | –
34 | FC(F)(F)c1ccccc1/C=N/n1c(C2CCCCC2)n[nH]c1=S | -38.5 | 32.6 µM [falling, single point] | 32.6 µM [falling, single point]
35 | C=CCn1c(C)cc(C(=O)CN2NS(=O)(=O)c3ccccc3C2=O)c1C | – | – | 6.51 µM [rising, single point]
36 | O=C(CSc1nncs1)Nc1nnc(-c2ccccc2)o1 | – | 0.58 µM [falling, full curve] | 0.731 µM [falling, full curve, poor fit]
37 | CN(CC(=O)NCC(c1ccco1)N1CCCCC1)S(=O)(=O)c1ccc(Cl)cc1 (centres undefined) | -100 | – | 14.6 µM [falling, partial curve]
38 | COCCCNC(=S)N(CCO)Cc1cc2cc3c(cc2[nH]c1=O)OCO3 | 2.12 | 0.146 µM [rising, full curve, poor fit] | –
39 | CCn1c(=N)n(CC(=O)c2ccc(Cl)c(Cl)c2)c2ccccc21 | 2.6 | – | –
40 | COc1ccc(NS(=O)(=O)c2cc(NC(=O)C3CCCCC3)ccc2N2CCOCC2)cc1 | 32.7 | 1.46 µM [rising, partial curve] | 5.8 µM [rising, partial curve]
41 | CCCCN(CC)C(=O)Cn1cnc2sc(C)c(S(=O)(=O)N3CCC(C)CC3)c2c1=O | 36.7 | 11.6 µM [falling, partial curve] | 18.4 µM [rising, partial curve, poor fit]
42 | CCN(CC)S(=O)(=O)c1ccc(OC(C)C)c(NC(=O)c2c3c(nc4ccccc24)CCN(Cc2ccccc2)C3)c1 | 40.6 | 1.84 µM [rising, full curve] | 1.46 µM [rising, full curve, poor fit]

Row | SMILES | cell number change [%] | AC50 [1] | AC50 [2]
43 | O=C(NCCSCc1ccco1)c1ccc(=O)[nH]c1 | -23.8 | – | –
44 | CCNc1nc(Oc2ccc(OC)cc2)cc(C(F)(F)F)n1 | -23.1 | 18.4 µM [falling, single point] | –
45 | CCn1ccc(=O)c2cc3c(cc21)OCO3 | 25.7 | – | –
46 | O=C(CCc1nnc2n(Cc3ccccc3)c(=O)c3ccccc3n12)NCCCN1CCCCC1 | -6.42 | 7.31 µM [falling, partial curve, poor fit] | –
47 | CCSC1=C(C#N)C2(CCCCC2)C2=C(CC(C)(C)CC2=O)N1 | 28.3 | 29.1 µM [rising, single point] | –
48 | Cc1cc(-c2nnc3n2N=C(c2ccccc2)CS3)n[nH]1 | 32.7 | 0.731 µM [rising, partial curve, poor fit] | –
49 | COc1ccccc1CNC(=O)c1ccc2c(=O)n(CC3CCCO3)c(=S)[nH]c2c1 (centres undefined) | -6.67 | – | –
50 | N#Cc1ccccc1S(=O)(=O)N1CCN(C(=O)c2cn(-c3ccccc3)nc2-c2cccnc2)CC1 | 6.02 | 6.51 µM [falling, single point] | 1.84 µM [falling, single point]
51 | COC(=O)c1scc(C)c1NC(=O)Nc1ccccc1 | 6.19 | 3.26 µM [falling, partial curve] | 5.17 µM [falling, partial curve]
52 | CCCC(C(=O)NCCc1ccc(S(N)(=O)=O)cc1)c1ccccc1 (centres undefined) | 1.32 | 0.398 µM [falling, single point] | –
53 | NNC(=O)CSc1c(-c2ccccc2)c2cc(Cl)ccc2[nH]c1=O | 20.2 | – | –
54 | COCCNC(=O)c1oc2ccc3c(c2c1C)C(O)CC(C)(C)O3 (centres undefined) | 4.26 | – | –
55 | CCn1c(=S)sc2c(=O)n(CC(=O)NC(C)CCc3ccccc3)c(C)nc21 (centres undefined) | -0.306 | 32.6 µM [rising, single point] | –
56 | O=C(CSc1nnc(-c2ccco2)n1Cc1ccco1)Nc1ccccc1 | -0.209 | 0.517 µM [rising, full curve, poor fit] | –
57 | CCN1CCN(c2ccc(S(=O)(=O)N3CCCCC3)cc2NC(=O)c2cc3ccccc3o2)CC1 | -25 | – | –
58 | COc1ccc(CCC(=O)Nc2cc([N+](=O)[O-])ccc2OC)cc1 | 19 | 0.259 µM [rising, full curve] | –
59 | Cc1ccsc1C(=O)OCC(=O)c1ccc[nH]1 | -4.89 | 6.51 µM [falling, single point] | –
60 | O=C(NNC(=O)C1CC1c1ccccc1)c1ccccc1[N+](=O)[O-] (centres undefined) | -17.8 | 9.2 µM [rising, partial curve, poor fit] | –
61 | CN(C)/C=C(\C(=O)c1ccccc1)c1nnnn1-c1ccc(F)cc1 | -6.93 | – | 0.411 µM [falling, single point]
